# Test results as given in the supplement of paper PMC3334620.
# In all, about 33,000 sequences were measured (“E-score (-0.5 to 0.5)”: median about -0.0014, highest 2% from about 0.25 on). Some of the results follow.
# Biological target: T1, Cad1 (UniProt P24813)
# T1 sequence: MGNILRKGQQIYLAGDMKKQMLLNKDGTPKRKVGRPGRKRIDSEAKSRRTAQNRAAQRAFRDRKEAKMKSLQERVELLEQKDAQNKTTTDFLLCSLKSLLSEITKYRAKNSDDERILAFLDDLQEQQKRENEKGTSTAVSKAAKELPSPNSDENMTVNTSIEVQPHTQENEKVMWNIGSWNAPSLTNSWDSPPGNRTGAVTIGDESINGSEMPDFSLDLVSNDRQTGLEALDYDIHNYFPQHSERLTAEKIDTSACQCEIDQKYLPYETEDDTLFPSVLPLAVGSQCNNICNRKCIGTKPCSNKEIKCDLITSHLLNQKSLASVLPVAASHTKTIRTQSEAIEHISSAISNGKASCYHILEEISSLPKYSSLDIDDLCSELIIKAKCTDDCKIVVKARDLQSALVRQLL
# Experiment: PBM E-score (8-mer binding enrichment) (E-score (-0.5 to 0.5)); higher = stronger / more preferred TF binding
# Details: protein concentration: 100 nM; construct: GST-full length
# Procedure, shortened: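 The E-score, a modified Wilcoxon-Mann-Whitney statistic, was computed by the Universal PBM Analysis Suite for every ungapped eight-base word pooled with its reverse complement. Scans behind it were normalised with masliner after bound GST-tagged yeast transcription factors were detected with fluorescent anti-GST. The proteins, at about 100-200 nM, had been applied to universal all-10-mer Agilent arrays made double-stranded by primer extension.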
row,Sequence,PBM E-score
1,ATAAGGAG,-0.143
2,GCCGTTAC,-0.0626
3,CTCCATCA,-0.114
4,GGTGGCAC,-0.149
5,CGAAACCG,0.198
6,GCCACAGA,-0.171
7,CAACTATC,0.0712
8,AATGGGCA,-0.0642
9,CTGTGCAC,-0.204
10,CAACAAGG,0.115
11,AAAAATGA,0.12
12,CAAAGGAC,-0.277
13,ATTTTTAA,0.241
14,CGATGGTA,0.0436
15,ACGCGCCA,-0.0612
16,AGTCAAGC,-0.226
17,GCAACACC,0.102
18,AATAACGG,0.253
19,GACGATGC,0.0139
20,CCACCCAA,-0.137
21,AGCTACGG,-0.113
22,TCGCGAGA,0.165
23,ATGAATAA,0.189
24,GACGGACC,0.142

row,Sequence,PBM E-score
1,AGGGAACT,-0.19
2,GCTATGGA,-0.0753
3,CAAGGGCG,-0.228
4,ATCTGGGA,-0.016
5,CTCCTTCC,-0.19
6,ACGCAGAT,-0.0666
7,CGCGCATC,-0.0854
8,GAATCAGA,0.0939
9,AGATAGAC,0.0347
10,ATATATGC,0.134
11,ACGCTTGG,-0.0308
12,CTGCTTGA,-0.114
13,CAAGATTC,0.0824
14,ACAGTATC,0.0125
15,AGCTAACT,-0.087
16,CTACGATA,0.0977
17,GTGGCGCA,-0.0767
18,TCCTGAAA,0.0543
19,CCGTCCAC,0.0714
20,AGGTTATC,-0.0475
21,AGACTGTA,-0.0872
22,ATCACGTC,0.179
23,AATGAAAA,0.152
24,ACTGTCGG,0.00644

row,Sequence,PBM E-score
1,AATGGTGG,-0.068
2,AGATCGGG,-0.173
3,GCGTCGGA,0.144
4,ATAAAAGA,-0.0385
5,GCTCTAAA,0.0281
6,CCTATTCC,-0.0703
7,AGGATCCG,-0.214
8,ATGTCAAC,0.086
9,TAAACACA,0.215
10,ACAAAGCC,0.0605
11,AGGTTCGA,0.101
12,AATGATTG,0.0196
13,CGGTTTAG,0.025
14,AGCAGAAT,0.0895
15,GGGTGACA,-0.0352
16,TCCAGCAA,0.0151
17,AGTCGGAA,0.0204
18,CTTTTTTA,0.109
19,CAACATAG,-0.073
20,CAAACCTA,0.0759
21,AGCATTCC,0.07
22,TGATATCA,-0.0316
23,ATTATGCG,0.209
24,ATAGGATC,0.0502

row,Sequence,PBM E-score
1,ACTGTGAG,0.0681
2,GCTTACCA,0.255
3,CTATCACA,0.192
4,ACCTACTA,0.11
5,TTACCGAA,0.173
6,GCGTCTCA,-0.0901
7,ACCGCCCA,-0.242
8,AAGAGACA,0.107
9,AACAGGGC,0.0552
10,CCGGGGTA,-0.148
11,CCAGGGGG,-0.433
12,AATGTGGG,-0.0491
13,ACTGGCCC,-0.192
14,GCGAACAA,0.275
15,CTCAAATC,-0.117
16,AACCAAAG,0.0578
17,CCACGGCC,-0.168
18,CGGGCATA,-0.0874
19,AAGCTGCG,0.00929
20,TAACCGGA,0.0582
21,CACTACAC,0.028
22,CGTTTGGA,-0.128
